The text below walks through data of PMC8898245.

Amino acid sequences for entries named in this document (tags omitted). Residues count along the entry.
UniProt P21860, residues 20-1342: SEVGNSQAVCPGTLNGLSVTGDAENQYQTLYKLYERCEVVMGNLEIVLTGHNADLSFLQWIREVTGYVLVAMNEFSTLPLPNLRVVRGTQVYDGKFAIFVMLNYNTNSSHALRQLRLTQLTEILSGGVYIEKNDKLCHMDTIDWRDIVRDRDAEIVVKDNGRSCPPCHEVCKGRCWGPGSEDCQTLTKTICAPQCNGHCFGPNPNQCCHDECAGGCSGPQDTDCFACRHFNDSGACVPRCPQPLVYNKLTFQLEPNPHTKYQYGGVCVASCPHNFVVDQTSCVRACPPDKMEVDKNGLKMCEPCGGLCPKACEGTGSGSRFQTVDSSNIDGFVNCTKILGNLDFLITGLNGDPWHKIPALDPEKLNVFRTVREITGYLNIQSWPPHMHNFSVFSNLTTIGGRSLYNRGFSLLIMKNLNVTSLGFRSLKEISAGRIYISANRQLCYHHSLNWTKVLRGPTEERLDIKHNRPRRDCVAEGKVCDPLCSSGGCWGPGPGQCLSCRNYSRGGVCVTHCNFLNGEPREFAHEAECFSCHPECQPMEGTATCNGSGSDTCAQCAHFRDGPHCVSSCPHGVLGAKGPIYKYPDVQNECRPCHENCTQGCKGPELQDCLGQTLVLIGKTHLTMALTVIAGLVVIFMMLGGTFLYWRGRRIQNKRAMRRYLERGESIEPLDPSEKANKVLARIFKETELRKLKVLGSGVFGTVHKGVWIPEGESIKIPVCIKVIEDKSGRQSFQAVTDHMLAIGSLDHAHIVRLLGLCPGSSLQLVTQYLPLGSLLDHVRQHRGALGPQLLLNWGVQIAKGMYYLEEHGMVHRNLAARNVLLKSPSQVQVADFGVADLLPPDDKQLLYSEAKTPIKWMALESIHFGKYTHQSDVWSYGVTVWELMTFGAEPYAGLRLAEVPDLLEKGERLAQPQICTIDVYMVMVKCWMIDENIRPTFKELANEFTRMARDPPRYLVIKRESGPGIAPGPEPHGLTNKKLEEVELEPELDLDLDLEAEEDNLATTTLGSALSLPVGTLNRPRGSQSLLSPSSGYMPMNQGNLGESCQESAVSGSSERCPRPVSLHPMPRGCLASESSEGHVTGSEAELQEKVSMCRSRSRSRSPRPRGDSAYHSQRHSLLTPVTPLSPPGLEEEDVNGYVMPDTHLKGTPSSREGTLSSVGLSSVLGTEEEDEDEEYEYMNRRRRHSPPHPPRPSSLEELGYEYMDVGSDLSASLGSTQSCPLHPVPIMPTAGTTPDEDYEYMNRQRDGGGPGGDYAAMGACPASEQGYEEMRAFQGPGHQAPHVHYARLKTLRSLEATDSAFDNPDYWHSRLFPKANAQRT
UniProt P08581, residues 25-1390: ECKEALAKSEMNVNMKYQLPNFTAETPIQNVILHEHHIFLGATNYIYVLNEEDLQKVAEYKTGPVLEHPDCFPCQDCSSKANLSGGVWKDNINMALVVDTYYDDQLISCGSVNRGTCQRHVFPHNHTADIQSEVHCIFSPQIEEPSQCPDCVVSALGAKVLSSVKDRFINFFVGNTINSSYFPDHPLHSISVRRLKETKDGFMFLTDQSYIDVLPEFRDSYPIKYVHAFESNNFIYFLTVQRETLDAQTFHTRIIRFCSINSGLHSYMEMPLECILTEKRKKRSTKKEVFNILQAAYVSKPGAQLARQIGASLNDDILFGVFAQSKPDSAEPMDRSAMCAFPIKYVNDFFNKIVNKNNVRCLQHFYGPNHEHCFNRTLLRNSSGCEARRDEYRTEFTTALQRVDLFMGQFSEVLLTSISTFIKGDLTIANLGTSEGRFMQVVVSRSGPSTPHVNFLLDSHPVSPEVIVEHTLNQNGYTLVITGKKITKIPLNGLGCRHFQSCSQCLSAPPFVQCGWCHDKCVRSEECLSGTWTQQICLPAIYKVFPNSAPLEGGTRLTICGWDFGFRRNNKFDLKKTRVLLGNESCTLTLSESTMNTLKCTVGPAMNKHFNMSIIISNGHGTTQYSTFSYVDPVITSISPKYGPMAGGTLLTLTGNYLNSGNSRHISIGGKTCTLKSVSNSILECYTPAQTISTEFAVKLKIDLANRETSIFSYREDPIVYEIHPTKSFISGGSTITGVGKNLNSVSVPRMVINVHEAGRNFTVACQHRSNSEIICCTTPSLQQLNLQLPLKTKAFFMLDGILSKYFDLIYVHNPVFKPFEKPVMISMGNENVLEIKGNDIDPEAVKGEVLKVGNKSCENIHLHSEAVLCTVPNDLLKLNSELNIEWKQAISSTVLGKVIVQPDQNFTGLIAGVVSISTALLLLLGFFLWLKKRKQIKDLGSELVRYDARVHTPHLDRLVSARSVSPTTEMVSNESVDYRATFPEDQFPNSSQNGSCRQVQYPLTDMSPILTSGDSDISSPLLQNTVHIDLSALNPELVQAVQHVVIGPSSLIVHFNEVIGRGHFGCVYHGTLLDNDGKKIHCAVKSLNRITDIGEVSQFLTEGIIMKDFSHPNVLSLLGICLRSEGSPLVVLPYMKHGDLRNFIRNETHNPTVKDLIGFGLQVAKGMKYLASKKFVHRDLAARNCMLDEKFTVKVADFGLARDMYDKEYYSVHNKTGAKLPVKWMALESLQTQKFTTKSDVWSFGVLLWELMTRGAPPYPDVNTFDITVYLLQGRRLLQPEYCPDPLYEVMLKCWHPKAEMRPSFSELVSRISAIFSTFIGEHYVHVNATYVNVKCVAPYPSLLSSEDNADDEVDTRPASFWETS

One assay concerns the target T1, MPZL3-V5 (human) (UniProt Q6UWV2).
T1 sequence: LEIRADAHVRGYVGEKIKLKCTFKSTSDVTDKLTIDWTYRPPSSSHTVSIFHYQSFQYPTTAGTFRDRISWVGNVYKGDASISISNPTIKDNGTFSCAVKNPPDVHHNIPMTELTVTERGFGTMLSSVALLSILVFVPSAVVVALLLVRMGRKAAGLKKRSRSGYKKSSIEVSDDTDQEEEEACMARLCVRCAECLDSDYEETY
The assay is described as follows: co-IP; KatoII cells stably transduced with MPZL3-V5, vehicle (DMSO); 1 mg lysate in TGH buffer, anti-V5 immunoprecipitation overnight, protein G sepharose, blots for HER3 and Met.

Assay [1] addresses T2, MPZL3 C52A (SIMPL construct) (human) (UniProt Q6UWV2).
T2 sequence: T1 sequence with C21A
As to the kind of experiment: split intein-mediated protein ligation (SIMPL); IN and IC intein fragments fused to bait and prey, co-expressed in HEK293T cells; transfer of the FLAG tag to the V5-tagged bait read by blot.

For assay [2], the target named is T3, MPZL3 R99Q (SIMPL construct) (human) (UniProt Q6UWV2).
T3 sequence: T1 sequence with R68Q
The assay is described as above.

The target in assay [3] is T4, MPZL3, full-length (co-overexpressed in HEK293T) (human) (UniProt Q6UWV2).
T4 sequence: T1 sequence
The assay is described as follows: co-IP; HER3 and MPZL3 (full-length or ΔECD) co-overexpressed in HEK293T cells; HER3 recovered by MPZL3 quantified; lysate collected 36 h post-transfection, anti-V5 immunoprecipitation.

Assay [4] addresses HER3-IN (V5-tagged) (human) (UniProt P21860). The assay is described as follows: split intein-mediated protein ligation (SIMPL); IN and IC intein fragments fused to bait and prey, co-expressed in HEK293T cells; transfer of the FLAG tag to the V5-tagged bait read by blot.

Substitutions are numbered along the chain they refer to. Results are given in words; binding and its absence hold for the method and conditions named. In cells and extracts the contact can be indirect. Some entries that bind do so weakly or less than the wild type. For part of these data: Tags and fused reporters may be left off the sequences shown.

With “Met (from UniProt P08581 25-1390) (receptor)”, the binding entry with MPZL3-V5 (human) is “no binding”.
For the molecule “HER3-IN (V5-tagged) (from UniProt P21860 20-1342) (receptor)”, the binding result in assay [1] and in assay [2] was “binds” each time.
Take “HER3 (from UniProt P21860 20-1342) (receptor)”: the binding result in the assay with MPZL3-V5 (human) was “binds”.
For the molecule “HER3 (co-overexpressed in HEK293T) (from UniProt P21860 20-1342) (receptor)”, the binding entry in assay [3] was “binds”.

B1: MPZL3-IC (FLAG-tagged) (protein, UniProt Q6UWV2 32-235)
chain: T1 sequence
Turning to B1, in assay [4], the binding result is listed as “binds”.
